# Values from PubChem BioAssay AID493246 (Drosophila RNAi Screening Center, 2011)
# Screen: 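Genes fly cells need to grow and stay alive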 (primary screen)
# Cells: Drosophila Kc and S2R+ cells
# Reagent: long dsRNA against Drosophila genes
# Measured: 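Raw, unnormalised count of remaining cells in each well; per-plate z-scores of cell number underlie the calls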
# Reading the numbers: Kc cell number and S2R+ cell number: higher = more cells remaining
# Rule for the call: 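Active when the per-plate z-score of cell number is 3 or more in the direction of fewer cells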
# In all, the deposit lists about 21,000 reagents; shown is a random part of those with a known target gene and a result. Over the whole deposit, 429 (2%) got an active call. 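Values are raw and not normalised between plates; calls rest on per-plate z-scores that were not deposited.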 Unmarked entries are inactive. A plus sign joins genes that one reagent is predicted to hit. No sequences are given here. Not stated in the record: the amount of reagent, the time to read-out.
Gene,PubChem SID,"Kc cell number, rep 1","Kc cell number, rep 2","S2R+ cell number, rep 1","S2R+ cell number, rep 2"
lectin-37Da,SID104183070,1.30e6,1.30e6,1.02e6,1.17e6
spn-A (spindle A),SID104196604,1.48e6,1.53e6,1.07e6,1.14e6
CG16868,SID104186425,1.24e6,1.32e6,1.13e6,1.16e6
Cat (Catalase),SID104190902,1.71e6,1.86e6,1.36e6,1.49e6
CG7376,SID104190621,1.34e6,1.47e6,1.15e6,1.09e6
Fdx1 (Ferredoxin 1),SID104190959,1.24e6,1.52e6,1.19e6,1.16e6
RabGGTa (Rab geranylgeranyltransferase subunit alpha),SID104191981,1.58e6,1.63e6,1.22e6,1.33e6
CG34316,SID104192872,1.41e6,1.63e6,1.03e6,1.18e6
Pp2C1 (Protein phosphatase 2C),SID104198491,6.34e5,,7.77e5,
CG14966,SID104188217,1.56e6,1.46e6,1.10e6,1.31e6
Qtzl (Quetzalcoatl),SID104181013,1.62e6,1.67e6,1.03e6,1.18e6
dos,SID104187784,1.05e6 (active),9.47e5,8.24e5,9.64e5
dos,SID104188505,1.40e6,1.26e6,1.06e6,1.29e6
CG4972,SID104182590,1.61e6,1.72e6,1.27e6,1.42e6
CG13494,SID104183931,1.84e6,1.95e6,1.25e6,2.81e5
Ir52a (Ionotropic receptor 52a),SID104186054,1.88e6,1.94e6,1.50e6,1.71e6
"beta-PheRS (Phenylalanyl-tRNA synthetase, beta-subunit)",SID104195651,1.47e6,1.54e6,1.12e6,1.19e6
Chd64,SID104188441,1.27e6,1.39e6,1.14e6,1.12e6
CG16896,SID104184076,1.21e6,1.39e6,1.05e6,9.53e5
CG7512,SID104190655,1.54e6,1.78e6,1.42e6,1.54e6
CG13054,SID104189727,1.35e6,1.43e6,1.31e6,1.41e6
CG14306 (retired record),SID104194577,1.23e6,1.22e6,1.09e6,1.17e6
Cht7 + tRNA:Cys-GCA-1-4 + tRNA:Lys-CTT-1-13,SID104187813,1.42e6,1.37e6,1.03e6,1.15e6
CG2225,SID104183514,1.40e6,1.50e6,1.18e6,1.19e6
CG2225,SID104183515,1.50e6,1.59e6,1.32e6,3.16e5
Cpr47Ed (Cuticular protein 47Ed),SID104187123,1.51e6,1.67e6,1.40e6,1.53e6
Cad96Cb (Cadherin 96Cb),SID104194035,1.49e6,1.56e6,9.53e5,1.01e6
Cad96Cb (Cadherin 96Cb),SID104194457,1.56e6,1.69e6,1.03e6,1.15e6
CG42714,SID104188590,1.64e6,1.70e6,1.10e6,1.26e6
PolA1 (DNA polymerase alpha subunit 1),SID104196432,1.41e6,1.47e6,1.08e6,1.14e6
CG15614,SID104186359,1.49e6,1.54e6,1.08e6,1.27e6
CG8578,SID104199906,5.82e5,,8.79e5,
Pex16 (Peroxin 16),SID104191542,1.50e6,1.50e6,1.35e6,1.42e6
CG10841,SID104194063,1.35e6,1.73e6,1.50e6,1.66e6
"ATPsynbetaL (ATP synthase, beta subunit-like)",SID104190295,1.37e6,1.42e6,1.27e6,1.32e6
Whamy (WHAMM and JMY related),SID104194366,1.47e6,1.46e6,1.30e6,1.36e6
CG10628,SID104181872,1.56e6,1.63e6,1.29e6,4.47e5
Jhbp5 (Juvenile hormone binding protein 5),SID104194032,1.30e6,1.35e6,1.13e6,1.28e6
Ae2 (Anion exchanger 2),SID104190761,1.44e6,1.55e6,1.25e6,1.09e6
CG34348,SID104199217,1.59e6,1.50e6,1.08e6,1.22e6
CG34348,SID104199436,1.59e6,1.47e6,1.19e6,1.28e6
CG3880,SID104184220,1.67e6,1.76e6,1.43e6,1.58e6
CHOp24,SID104198102,6.03e5,,8.55e5,
Or33b (Odorant receptor 33b),SID104183179,1.57e6,1.71e6,1.25e6,1.41e6
CG12290,SID104194289,4.99e5,,7.75e5,
Pfas (Phosphoribosylformylglycinamidine synthase),SID104183272,1.34e6,1.34e6,7.27e5,9.25e5
Act42A (Actin 42A),SID104184627,1.33e6,1.37e6,1.07e6,1.24e6
ND-B16.6 (NADH dehydrogenase (ubiquinone) B16.6 subunit),SID104198098,1.67e6,1.61e6,9.61e5,1.04e6
Zfrp8 (Zinc finger protein RP-8),SID104184144,1.53e6,1.58e6,1.30e6,1.40e6
Mcm10 (Minichromosome maintenance 10),SID104182954,1.27e6,1.26e6,1.10e6,1.05e6
CG6985,SID104195956,1.46e6,1.56e6,1.17e6,1.23e6
CG42232,SID104194810,1.57e6,1.62e6,1.20e6,1.23e6
CG42232,SID104194811,1.64e6,1.69e6,1.27e6,1.24e6
CG6418,SID104190425,1.18e6,1.36e6,1.39e6,1.14e6
CG33966,SID104188048,1.54e6,1.29e6,9.95e5,1.17e6
Spag1 (Spag1 axonemal dynein assembly factor),SID104195123,1.47e6,1.45e6,9.35e5,1.11e6
Hacd2 (3-hydroxyacyl-CoA dehydratase 2),SID104182973,1.71e6,1.74e6,1.37e6,1.59e6
CG42390,SID104195658,1.52e6,1.55e6,1.02e6,1.03e6
E(bx) (Enhancer of bithorax),SID104187964,1.37e6,1.36e6,1.01e6,1.35e6
E(bx) (Enhancer of bithorax),SID104188301,1.65e6,1.67e6,9.91e5,1.46e6
E(bx) (Enhancer of bithorax),SID104188375,1.54e6,1.60e6,1.23e6,1.31e6
park (parkin),SID104191410,1.51e6,1.55e6,1.46e6,1.51e6
ATP8B (ATPase 8B),SID104194753,1.58e6,1.52e6,1.26e6,1.31e6
miple1 (midkine and pleiotrophin 1),SID104188514,1.31e6,1.43e6,1.09e6,1.27e6
Jhbp13 (Juvenile hormone binding protein 13),SID104182705,1.76e6,1.87e6,1.37e6,1.56e6
Takl1 (Tak1-like 1),SID104193235,1.55e6,1.43e6,1.10e6,1.04e6
CG14357,SID104194612,1.18e6,1.32e6,1.11e6,1.21e6
Bap111 (Brahma associated protein 111kD),SID104198211,1.32e6,1.39e6,1.12e6,1.31e6
mod(mdg4) (modifier of mdg4),SID104193266,1.43e6,1.45e6,1.07e6,1.19e6
mod(mdg4) (modifier of mdg4),SID104193267,1.45e6,1.42e6,1.08e6,1.16e6
mod(mdg4) (modifier of mdg4),SID104193270,1.40e6,1.42e6,9.97e5,1.10e6
mod(mdg4) (modifier of mdg4),SID104193271,1.49e6,1.46e6,1.13e6,1.12e6
mod(mdg4) (modifier of mdg4),SID104194834,1.49e6,1.45e6,1.11e6,1.20e6
mod(mdg4) (modifier of mdg4),SID104196792,1.83e6,1.82e6,1.36e6,1.49e6
Pglym78 (Phosphoglyceromutase 78),SID104196579,5.63e5,,8.18e5,

Targets listed so far whose target name starts with D or d (2):
Gene,PubChem SID,"Kc cell number, rep 1","Kc cell number, rep 2","S2R+ cell number, rep 1","S2R+ cell number, rep 2"
dos,SID104187784,1.05e6 (active),9.47e5,8.24e5,9.64e5
dos,SID104188505,1.40e6,1.26e6,1.06e6,1.29e6
